Assay results from patent US20210395381A1.

target: TfR-1 (species not stated at the place); assay: phage ELISA

Binder | binding
Clone 8 (VNAR) VNAR: ARVDQTPQTITKETGESLTINCVLRDSNCALPSTYWYRKKSGSTNEESISKGGRYVETVNSGSKSFSLRINDLTVEDSGTYRCKVIAQLSSILRGCNYRKHDVYGDGTAVTVNA | binds
Clone 67 (VNAR) VNAR: ARVDQTPQTITKETGESLTINCVLRDNNCASSTTYWYRKKSGSTNEENISKGGRYVETVNSGSKSFSLKINDLTVEDSGTYRCNVRDVQACGNDWVWLDVYGGGTVVTVNA | binds
Clone 66 (VNAR) ARVDQTPQTITKETGESLTINCVLRDSICALSSTHWYRKKSGSTNQESISKGGRYVETVNSGSKSFSLRINDLTVEDSGTYRCNVVQKGRIKCSRMLEDVYGGGTVVTMNA | binds
Clone 68 (VNAR) VNAR: PRVDQTPQTITKETGESLTINCVLRDSNCALPSTYWYRKKSGSTNEESISKGGRYVETVNSGSKSFSLRINDLTVEDSGTYRCNVSGGRGGVCWQGSDVYGGGTVVTVNA | binds
Clone 64 (VNAR) VNAR: ARVDQTPQTITKETGESLTINCVLRDSNCALSSTYWYRKKSGSTNEESISKGGRYVETVNSGSKSFSLRINDLTVEDSGTYRCNVQLQFDCKEWEDVYGGGTVVTVNA | binds
Clone 48 (VNAR) VNAR: ARVDQTPRSVTKETGESLTINCVLRDASYELGSTCWYRKKSGSTNEESISKGGRYVETVNSGSKSFSLRINDLTVEDGGTYRCGASFMLSHPGGCDSCVIMCQTRRQGVAACGDGTAVTVNA | binds
Clone 63 (VNAR) VNAR: ARVDQTPQTITKETGESLTINCVLRDSNCALPSTYWYRKKSGSTNEESISKGGRYVETVNSGSKSFSLKINDLTVEDSGTYRCKVANEYWLRLNQCFYLQHDVYGGGTVVTVNA | binds
Clone 65 (VNAR) VNAR: ARVDQTPRSVTKETGESLTINCVLRDSICALSSTHWYRKKSGSTNEESISKGGRYVETVNSGSKSFSLRINDLTVEDSGTYRCKVTVTKWCCKQRDGCTGDVYGGGTAVTVNA | binds
Clone 61 (VNAR) VNAR: ARVDQTPQTITKETGESLTINCVLRDSNCALSSTYWYRKKSDSTNEESISKGGRYVETVNSGSKSFSLKINDLTVEDSGTYRCKVLSVQRLFCAIFASEDVYGDGTAVTVNA | binds
Clone 62 (VNAR) VNAR: ARVDQTPQTITKETGESLTINCVLRDSNCALSSTYQYRKKSGSTNEESISKGGRYVETVNSGSKSFSLRINDLTVKDSGTYRCNVLSVQRLFCAIFASEDVYGDGTAVTVNA | binds

The next lines start with the values.

binding | Binder
binds | Clone 74 (VNAR) VNAR: ARVDQTPRSVTKETGESLTINCVLRDASYALGSTCWYRKKSGSTNEESISKGGRYVETVNSGSKSFSLRINDLTVEDGGTYRCGVSLRGKTMRGECDYQVSVGLCGGQAAACGDGTAVTVNA
binds | Clone 72 (VNAR) VNAR: ARVDQTPQTVTKETGESLTINCVLRDSNCALPSTYWYRKKSGSTNEESISKGGRYVETVNSGSKSFSLRINDLTVEDSGTYRCNVIWLQVGVCDDYPYDVYGDGTAVTVNA
binds | Clone 84 (VNAR) VNAR: ARVDQTPQTITKETGESLTINCVLRDSNCALSNLYWYRKKSGSTNEESISLGGRYVETVNSGSKSFSLKINDLTVEDSGTYRCNVQLSNYYVDWYDVYGGGTVVTVNA
binds | Clone 71 (VNAR) VNAR: ARVDQTPRSVTKETGESLTINCVLRDASYELGSTCWYRKKSGSTNEESISKGGRYVETVNSGSKSFSLRINDLTVEDGGTYRCGALIQSHRNGRCDGWFDICPTSLGGAACGDGTAVTVNA
binds | Clone 75 (VNAR) VNAR: ARVDQTPQTITKETGESLTINCVLRDSNCALPSTYWYRKKSDSTNEESISKGGRYVETVNSGSKSFSLRINDLVVEDSGTYRCNVMRLERCRQNGDVYGGGTAVTVNA
binds | Clone 76 (VNAR) VNAR: ARVDQTPQTVTKETGESLTINCVLRDSNCALSNLYWYRKKSGSTNEESISLGGRYVETVNSGSKSFSLKINDLTVEDSGTYRCNVPALQVCCDGTQLDVYGGGTAVTVNA
binds | Clone 80 (VNAR) VNAR: ARVDQTPQTITKETGESLTINCVLRDSNCALSNLYWYRKKSGSTNEESISKGGRYVETVNSGSKSFSLRINDLTVKDSGTYRCKVGAERYKSSWQCMGRSASDVYGGGTVVTVNA
binds | Clone 85 (VNAR) VNAR: ARVDQTPQTITKETGESLTINCVLRADSNCELSSTYWYRKKSGSTNEARISKGGRYVETVNSGSKSFSLRINDLTVEDSGTYRCNVFAQRHCGYYRDVYGDGTAVTVNA
binds | Clone 73 (VNAR) VNAR: ARVDQTPQTITKETGESLTINCVLRDSNCALPSTYWYRKKSGSTNEESISKGGRYVETVNSGSKSFSLRINDLTVEDSGTYRCNVDGWSLCQELCDVYGGGTVVTVNT
binds | Clone 69 (VNAR) VNAR: ARVDQTPQTITKETGESLTINCVLRDSNCALPITYWYRKKSGSTNEESISKGGRYVETVNSGSKSFSLRINDLTVKDSGTYRCNVPAQLLLYSGQQGVDVYGDGTVVTVNA
binds | Clone 79 (VNAR) VNAR: ARVDQTPQTITKETGESLTINCVLRDSNCALSNLYWYRKKSGSTNEESISLGGRYVETVNSGSKSFSLRINDLTVEDSGTYRCKVSRRAQRLVSDDQSAWMDVYGGGTVVTVNA
binds | Clone 78 (VNAR) VNAR: ARVDQTPQTITKETGESLTINCVLRDSNCALPSTYWYRKKSGSTNEESISKGGRYVETVNSGSKSFSLRINDLTVKDSGTYRCNVFILGQLYGYDYLDVYGGGTAVTVNA
binds | Clone 77 (VNAR) VNAR: ARVDQTPQTITKETGSLTINCVLRDSNCDLSRTYWYRKKSGSTNEESISKGGRYVETVNSGSKSFSLRINDLVVEDSGTYRCNVPVGHCCYCAGFDVYGDGTVVTVNA
binds | Clone 82 (VNAR) VNAR: ARVDQTPQTITKETGESLTINCVLRDSNCDLSRTYWYRKKSGSTNEESISKGGRYVETVNSGSKSFSLRINDLVVEDSGTYRCNVYNPSSYTSVCDVYGGGTAVTVNA

These are yes or no findings as the source states them, for the method shown. Binding calls can cover weak binding; strength is not graded here.
